Chains of the proteins cited; added tags and fusions are not shown. Residues count along the entry.
UniProt P16410, 36-223: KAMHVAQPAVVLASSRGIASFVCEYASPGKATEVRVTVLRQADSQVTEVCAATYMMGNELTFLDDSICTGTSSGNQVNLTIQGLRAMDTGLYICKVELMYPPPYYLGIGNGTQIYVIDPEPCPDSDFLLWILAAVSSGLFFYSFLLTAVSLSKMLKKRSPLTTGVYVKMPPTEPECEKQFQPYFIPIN

In patent publication US20240182909:

Legend:
[1] = biological target: CTLA4 on IL-2 activated T cells (Homo sapiens) (UniProt P16410); test: activity in cells; settings: deoxyuridine (dU) in place of every T; significantly enhanced CD8 T cell cytolysis of HCT 15 and COLO 205 cells (LDH assay); protein on the cell surface; single-stranded DNA; dose not given here
[2] = biological target: CTLA4 on IL-2 activated T cells (Homo sapiens) (UniProt P16410); test: flow cytometry; settings: deoxyuridine (dU) in place of every T; IL-2 (20 ng/ml) activated CD8 T cells and CD3+ T cells; SA-APC detection; protein on the cell surface; label: biotin; single-stranded DNA
D-dimer = test: ELONA; settings: deoxyuridine (dU) in place of every T; D-dimer-coated plate; purified native protein; label: biotin; single-stranded DNA

For “ACACTTTTCCCCCACCTGATCCTCAGTTCCGGAAAAGTGT [ctla4_R2_13]”, the “functional effect of the aptamer” value [1] was “active”, the binding result [2] was “binds” and the binding result (D-dimer) was “no binding”.

For part of these data: At least one result comes from cells or an extract, where the contact may be indirect. For part of these data: Construct, isoform or probe ends are uncertain for at least one entry. For part of these data: A negative result means that nothing was seen under these conditions.
